Assay results taken from PubChem BioAssay AID1487 (National Center for Advancing Translational Sciences (NCATS), 2009).
The other results are listed elsewhere or left out. Shown are side measurements of this screen, not its main read-out; they come without a call. Compounds called inactive in the main read-out are mostly missing here. Potencies come from curve fits of mixed quality, noted in brackets.

Experiment: qHTS Assay for Modulators of Lamin A Splicing
Conditions: HeLa LMNA splicing GFP/RFP minigene ratio, 48 h
In short: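 Read-out is the ratio of GFP to DsRed2 object intensity, acquired by 488 nm laser-scanning cytometry on HeLa lamin A-EGFP minigene reporter cells. Compound incubation 48 hrs at 37 °C in Opti-MEM with 2% FBS; DMSO 0.5% final.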

[1] = measured here: RFP viability control channel
[2] = measured here: GFP splicing reporter channel

Q: Which AC50 [1] does the source give for `CC(=O)c1cccc(S(=O)(=O)NC2CCCCCC2)c1` here?
A: 35.5 µM [rising, single point]

Q: Which AC50 [1] does the source give for `COc1cccc(CCc2nnc(CCC(=O)N3CCCC3c3nccs3)o2)c1` (stereo not drawn) here?
A: 0.158 µM [falling, full curve, poor fit]

Q: Which AC50 [1] does the source give for `S=C(Nc1ccccc1)N(Cc1ccccc1)Cc1ccncc1` here?
A: 0.0891 µM [falling, full curve, poor fit]

Q: Which results are given for `Cc1nc(-c2cccc(S(=O)(=O)N3CCC(C(=O)NCc4ccccc4Cl)CC3)c2)no1`?
A: AC50 [2]: 3.98 µM [falling, partial curve]; AC50 [1]: 2.51 µM [falling, full curve]

Q: For `S=C(N/N=C/c1ccc2ncccc2c1)Nc1ccccc1`, which AC50 [1] is on record?
A: 0.501 µM [rising, full curve]

Q: Which AC50 [2] does the source give for `COc1cccc(-c2nnc3n2N=C(C(C)(C)C)CS3)c1` here?
A: 15.8 µM [falling, single point]

Q: And the AC50 [1]?
A: 12.6 µM [falling, partial curve]

Q: Which AC50 [1] does the source give for `COc1ccc(NC(=S)NCCCc2ccccc2)cc1` here?
A: 31.6 µM [rising, single point]

Q: Which AC50 [2] does the source give for `Fc1ccc(C(CCCn2nnc(-c3cccnc3)n2)c2ccc(F)cc2)cc1` here?
A: 15.8 µM [rising, partial curve]

Q: And the AC50 [1]?
A: 11.2 µM [rising, partial curve]

Q: For `COc1ccc(N2CC(O)=C(c3nc(-c4ccc(Cl)cc4)cs3)C2=N)cc1`, which AC50 [2] is on record?
A: 0.562 µM [falling, full curve, poor fit]

Q: What about the AC50 [1] of the same molecule?
A: 0.562 µM [falling, full curve]

Q: For `Oc1ccc(CNc2ccccc2)c2cccnc12`, which AC50 [1] is on record?
A: 31.6 µM [rising, single point]

Q: Which AC50 [2] does the source give for `CCOC(=O)N1CCN(c2nc(-c3ccc(F)cc3)cs2)CC1` here?
A: 3.98 µM [rising, single point]

Q: And the AC50 [1]?
A: 20 µM [rising, single point]

Q: With `CC(NC(=O)Nc1ccccc1F)C(C)(C)C` (stereo not drawn) as the molecule, how does the AC50 [2] read?
A: 0.00447 µM [rising, full curve, poor fit]

Q: With `Cc1nnc(NC(=O)CSc2cn(CCNC(=O)c3ccccc3)c3ccccc23)s1` as the molecule, how does the AC50 [2] read?
A: 7.08 µM [rising, partial curve, poor fit]

Q: What about the AC50 [1] of the same molecule?
A: 10 µM [rising, partial curve, poor fit]

Q: Which AC50 [1] does the source give for `C/C(Cn1nnc([N+](=O)[O-])n1)=N\NC(=O)c1ccc(Cl)c(Cl)c1` here?
A: 35.5 µM [rising, single point]

Q: With `NNc1nc2ccc(Cl)cc2s1` as the molecule, how does the AC50 [1] read?
A: 12.6 µM [rising, partial curve]

Q: Which AC50 [1] does the source give for `CCOC(=O)Cc1csc(NC(=O)Nc2ccccc2)n1` here?
A: 31.6 µM [rising, single point]

Q: For `NC(N)=[N+]1CCc2ccccc2C1`, which AC50 [1] is on record?
A: 0.178 µM [rising, full curve, poor fit]

Q: For `CN(Cc1nc(-c2cccnc2)no1)S(=O)(=O)c1ccc2ccccc2c1`, which AC50 [2] is on record?
A: 35.5 µM [rising, single point]

Q: For `CCCn1c(SCC(=O)c2ccc3c(c2)NC(=O)CO3)nc2ccccc21`, which AC50 [1] is on record?
A: 0.126 µM [rising, full curve, poor fit]

Q: Which AC50 [1] does the source give for `CCCCN(CC)Cc1ccc(CNC(=O)Nc2ccc(F)cc2)o1` here?
A: 0.1 µM [rising, full curve, poor fit]

Q: With `COc1cccc(C(=O)N2CCN(C(=O)c3cccs3)CC2)c1OC` as the molecule, how does the AC50 [1] read?
A: 11.2 µM [rising, single point]

Q: For `CC(/C=N/Nc1nc(C)cc(C)n1)=C\c1ccc(C(C)C)cc1`, which AC50 [1] is on record?
A: 7.94 µM [rising, partial curve]

Q: For `CC(=O)Nc1ccc(C(=O)Nc2ccc3c(c2)N(C2CCCC2)C(=O)c2ccccc2S3)cc1`, which AC50 [2] is on record?
A: 3.98 µM [falling, full curve, poor fit]

Q: With `Nc1nc(Nc2cccc(C(F)(F)F)c2)nc(C(F)(F)F)n1` as the molecule, how does the AC50 [1] read?
A: 8.91 µM [falling, partial curve, poor fit]

Q: For `CCOc1ccc2nc(N3C(=O)/C(=C/c4ccccc4)NC3=S)sc2c1`, which AC50 [1] is on record?
A: 10 µM [rising, partial curve]

Q: Which AC50 [1] does the source give for `CC1CCc2nc(NC(=O)CN3CCN(Cc4ccc5c(c4)OCO5)CC3)sc2C1` (stereo not drawn) here?
A: 14.1 µM [rising, single point]

Q: For `Cc1nnc(N2CCC(C(=O)NC(C)C)CC2)c2nn(-c3ccccc3)c(C)c12`, which AC50 [2] is on record?
A: 12.6 µM [rising, single point]

Q: Which AC50 [2] does the source give for `CCOc1ccc(CN(Cc2ccco2)S(=O)(=O)c2ccc(-n3cnnn3)c(OC)c2)cc1` here?
A: 12.6 µM [rising, partial curve]

Q: And the AC50 [1]?
A: 15.8 µM [rising, single point]

Q: Which AC50 [1] does the source give for `CC(C)CC(COCc1ccc(Cl)cc1)N1CCN(C(=O)c2ccc(Cl)cc2Cl)CCC1=O` (stereo not drawn) here?
A: 14.1 µM [rising, single point]

Q: With `CCOc1ccc(C(=O)Nc2ccc(-n3nncc3-c3ccc(OC)cc3)cc2)cc1` as the molecule, how does the AC50 [2] read?
A: 7.08 µM [falling, partial curve]

Q: And the AC50 [1]?
A: 7.08 µM [falling, partial curve]

Q: Which AC50 [1] does the source give for `CC(=O)NC[C@H]1CN(c2ccc(N3CCOCC3)c(F)c2)C(=O)O1` here?
A: 35.5 µM [falling, single point]

Q: For `Cc1ccc(C(=O)c2ccccc2C(=O)OCC(=O)NCCc2ccccc2)cc1`, which AC50 [1] is on record?
A: 0.447 µM [rising, full curve, poor fit]

Q: Which AC50 [2] does the source give for `O=C(OCn1ncc(Cl)c(Cl)c1=O)c1cccc(C(F)(F)F)c1` here?
A: 3.55 µM [falling, full curve]

Q: What about the AC50 [1] of the same molecule?
A: 5.62 µM [falling, full curve]

Q: With `Cc1cc(C=O)c(C)n1-c1cc(C(F)(F)F)ccc1N1CCOCC1` as the molecule, how does the AC50 [2] read?
A: 20 µM [rising, partial curve, poor fit]

Q: What about the AC50 [1] of the same molecule?
A: 20 µM [rising, single point]

Q: For `CCOC(=O)c1c(C)[nH]c(C(=O)N/N=C\c2ccccc2O)c1C`, which AC50 [1] is on record?
A: 3.55 µM [rising, full curve]

Q: Which AC50 [2] does the source give for `Cc1ccsc1/C=N\Nc1cn[nH]c(=O)c1Cl` here?
A: 3.98 µM [rising, partial curve, poor fit]

Q: And the AC50 [1]?
A: 2.82 µM [rising, partial curve]

Q: For `CC1(C)C2(C#N)C(N)=NC3(OCCO3)C12C#N` (stereo not drawn), which AC50 [1] is on record?
A: 0.0891 µM [falling, full curve, poor fit]

Q: For `O=C(NCCc1ccc(F)cc1)c1cc(-c2ccncc2)nc2ccccc12`, which AC50 [2] is on record?
A: 25.1 µM [falling, single point]

Q: For `COc1ccc(C(=O)/C=C/N2CCCCC2)cc1OC`, which AC50 [1] is on record?
A: 3.16 µM [rising, partial curve]

Q: What does the source list for `O=c1[nH]c2ccccc2n1CCCN1CCCCC1`?
A: AC50 [2]: 6.31 µM [falling, single point]; AC50 [1]: 2.82 µM [falling, partial curve]

Q: For `O=c1c2ccccc2[nH]c(=S)n1CCN1CCC(=C(c2ccc(F)cc2)c2ccc(F)cc2)CC1`, which AC50 [2] is on record?
A: 20 µM [rising, partial curve]

Q: For `O=C(CSc1nc(-c2ccccc2)nc2cc(=O)[nH]n12)Nc1ccccc1`, which AC50 [2] is on record?
A: 0.00316 µM [falling, full curve, poor fit]

Q: Which results are given for `Cc1cccc(C(=O)Nc2nnc(COc3ccccc3)s2)c1`?
A: AC50 [2]: 1.41 µM [rising, full curve]; AC50 [1]: 2.82 µM [rising, partial curve, poor fit]

Q: For `Cc1ccc(Cn2ccc(=O)c(OCc3c(Cl)cccc3Cl)c2C)cc1`, which AC50 [1] is on record?
A: 14.1 µM [rising, single point]

Q: Which AC50 [2] does the source give for `C/C(=N\OCC(=O)N/N=C/c1ccc(C)cc1O)c1cccs1` here?
A: 35.5 µM [falling, single point]

Q: And the AC50 [1]?
A: 35.5 µM [falling, single point]

Q: Which AC50 [1] does the source give for `COc1ccccc1CNc1nc(S(=O)(=O)c2ccccc2)c(Cl)s1` here?
A: 12.6 µM [rising, partial curve]

Q: Which results are given for `CC1(C)Cc2cccc(OCC(=O)Nc3cccnc3)c2O1`?
A: AC50 [2]: 1.41 µM [rising, partial curve, poor fit]; AC50 [1]: 5.62 µM [rising, partial curve, poor fit]

Q: For `O=[N+]([O-])c1ccc(Sc2ccccc2Cl)nc1`, which AC50 [1] is on record?
A: 11.2 µM [rising, single point]

Q: With `O=C1C(O)=C(O)C(=O)C(O)=C1O` as the molecule, how does the AC50 [2] read?
A: 0.631 µM [falling, partial curve, poor fit]

Q: What about the AC50 [1] of the same molecule?
A: 0.562 µM [falling, partial curve, poor fit]

Q: With `Cc1ccc(/C([O-])=C(/C(=S)NCc2ccccc2)[n+]2cccc(CO)c2)cc1[N+](=O)[O-]` as the molecule, how does the AC50 [2] read?
A: 0.0398 µM [falling, full curve, poor fit]

Q: For `CCOC(=O)C(Oc1ccc2c(-c3ccccc3)cc(=O)oc2c1)c1ccccc1` (stereo not drawn), which AC50 [1] is on record?
A: 11.2 µM [rising, partial curve, poor fit]

Q: What does the source list for `CSCc1c(C(=O)NC2CCCc3ccccc32)oc2ccccc12` (stereo not drawn)?
A: AC50 [2]: 5.01 µM [rising, partial curve, poor fit]; AC50 [1]: 12.6 µM [rising, partial curve, poor fit]

Q: Which results are given for `CC(=O)N1CCc2cc(S(=O)(=O)NC3CCCc4ccccc43)ccc21` (stereo not drawn)?
A: AC50 [2]: 5.62 µM [rising, full curve]; AC50 [1]: 8.91 µM [rising, partial curve]

Q: With `Nc1nc(SCc2c(Cl)cccc2Cl)n[nH]1` as the molecule, how does the AC50 [1] read?
A: 14.1 µM [rising, single point]

Q: What does the source list for `CCN(C(=O)CSc1nc2ccccc2nc1Cc1ccc(F)cc1)c1cccc(C)c1`?
A: AC50 [2]: 14.1 µM [rising, partial curve, poor fit]; AC50 [1]: 28.2 µM [rising, single point]

Q: What does the source list for `NS(=O)(=O)c1cnccc1Nc1ccc(Cl)cc1`?
A: AC50 [2]: 12.6 µM [rising, single point]; AC50 [1]: 15.8 µM [rising, single point]

Q: Which results are given for `CCSc1nc(N2CCOCC2)c2c(c1C#N)CCCC2`?
A: AC50 [2]: 35.5 µM [rising, single point]; AC50 [1]: 35.5 µM [rising, single point]
